Measured values published in patent US20100184668A1.
These are yes or no findings as the source states them, for the method shown. Binding seen in cells or lysates may run through a third protein. Some binding calls cover weakened binding; strength is not graded here. For some assays here: Sequences can lack the tags named with a protein.

Amino acid sequences for entries named in this document (tags omitted). Residues count along the entry.
UniProt P16671, residues 67-157: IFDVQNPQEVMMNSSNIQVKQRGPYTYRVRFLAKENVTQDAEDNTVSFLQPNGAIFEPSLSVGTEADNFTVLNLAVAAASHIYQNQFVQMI
UniProt P07996, residues 19-1170: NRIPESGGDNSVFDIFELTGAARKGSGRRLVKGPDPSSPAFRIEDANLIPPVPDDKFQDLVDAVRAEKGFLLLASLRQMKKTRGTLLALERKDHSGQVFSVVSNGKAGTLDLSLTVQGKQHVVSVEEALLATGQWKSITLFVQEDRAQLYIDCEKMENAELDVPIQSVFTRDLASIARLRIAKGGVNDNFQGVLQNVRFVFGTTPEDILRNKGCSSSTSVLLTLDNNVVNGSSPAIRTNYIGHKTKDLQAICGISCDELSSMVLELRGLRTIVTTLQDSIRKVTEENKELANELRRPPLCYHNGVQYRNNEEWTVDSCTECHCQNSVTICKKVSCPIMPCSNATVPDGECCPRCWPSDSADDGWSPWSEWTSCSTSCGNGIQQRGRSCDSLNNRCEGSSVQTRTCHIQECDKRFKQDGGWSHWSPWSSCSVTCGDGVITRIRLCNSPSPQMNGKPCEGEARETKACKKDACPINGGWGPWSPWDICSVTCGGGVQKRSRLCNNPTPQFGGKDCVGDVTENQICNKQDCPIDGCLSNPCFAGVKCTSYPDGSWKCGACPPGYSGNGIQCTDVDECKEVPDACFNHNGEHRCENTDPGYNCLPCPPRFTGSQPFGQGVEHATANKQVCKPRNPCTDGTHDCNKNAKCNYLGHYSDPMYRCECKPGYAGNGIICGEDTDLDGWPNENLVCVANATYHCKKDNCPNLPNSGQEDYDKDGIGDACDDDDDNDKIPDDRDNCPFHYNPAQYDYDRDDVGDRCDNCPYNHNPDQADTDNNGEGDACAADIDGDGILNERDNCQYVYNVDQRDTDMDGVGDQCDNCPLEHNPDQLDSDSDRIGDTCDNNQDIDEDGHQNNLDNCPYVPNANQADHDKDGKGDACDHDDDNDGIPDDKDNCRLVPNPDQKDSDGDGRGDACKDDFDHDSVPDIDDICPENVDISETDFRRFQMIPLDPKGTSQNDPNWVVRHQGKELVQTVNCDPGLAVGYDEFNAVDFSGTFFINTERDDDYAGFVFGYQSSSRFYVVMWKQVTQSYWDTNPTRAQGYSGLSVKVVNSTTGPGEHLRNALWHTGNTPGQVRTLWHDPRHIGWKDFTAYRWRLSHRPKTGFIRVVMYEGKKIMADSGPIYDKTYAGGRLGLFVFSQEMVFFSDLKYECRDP

Columns and labels:
[1] = target: GST-CD36 fusion protein spanning amino acids 67-157 of CD36 (UniProt P16671); assay: GST pull-down, Western blot (FIG. 5C)
[2] = target: GST-CD36 fusion protein spanning amino acids 67-157 of CD36 (UniProt P16671); assay: GST pull-down on glutathione sepharose beads from conditioned medium of LN229 clone C9, Western blot
[3] = target: GST-CD36 fusion protein spanning amino acids 67-157 of CD36 (UniProt P16671); assay: GST pull-down (FIGS. 5A-5C)
[4] = target: GST-CD36 fusion protein spanning amino acids 67-157 of CD36 (UniProt P16671); assay: GST pull-down on glutathione sepharose beads from conditioned medium, Western blot

| Molecule | binding [1] | binding [2] | binding [3] | binding [4] |
| --- | --- | --- | --- | --- |
| thrombospondin-1 (TSP1), secreted into conditioned medium of LN229 clone C9 (from UniProt P07996 19-1170) (ligand) | binds | binds | – | – |
| Vasculostatin 120 (Vstat120), myc/his-tagged, secreted into conditioned medium (protein, not shown: small tags and cut ends) GADAGPGPEPCATLVQGKFFGYFSAAAVFPANASRCSWTLRNPDPRRYTLYMKVAKAPVPCSGPGRVRTYQFDSFLESTRTYLGVESFDEVLRLCDPSAPLAFLQASKQFLQMRRQQPPQHDGLRPRAGPPGPTDDFSVEYLVVGNRNPSRAACQMLCRWLDACLAGSRSSHPCGIMQTPCACLGGEAGGPAAGPLAPRGDVCLRDAVAGGPENCLTSLTQDRGGHGATGGWKLWSLWGECTRDCGGGLQTRTRTCLPAPGVEGGGCEGVLEEGRQCNREACGPAGRTSSRSQSLRSTDARRREELGDELQQFGFPAPQTGDPAAEEWSPWSVCSSTCGEGWQTRTRFCVSSSYSTQCSGPLREQRLCNNSAVCPVHGAWDEWSPWSLCSSTCGRGFRDRTRTCRPPQFGGNPCEGPEKQTKFCNIALCPGRAVDGNWNEWSSWSACSASCSQGRQQRTRECNGPSYGGAECQGHWVETRDCFLQQCPVDGKWQAWASWGSCSVTCGAGSQRRERVCSGPFFGGAACQGPQDEYRQCGTQRCPEPHEICDEDNFGAVIWKETPAGEVAAVRCPRNATGLILRRCELDEEGIAYWEPPTYIRCVSIDYRNIQMMTREHLAKAQRGLPGEGVSEVIQTLVEISQDGTSYSGDLLSTIDVLRNMTEIFRRAYYSPTPGDVQNFVQILSNLLAEENRDKWEEAQLAGPNAKELFRLVEDFVDVIGFRMKDLRDAYQVTDNLVLSIHKLPASGATDISFPMKGWRATGDWAKVPEDRVTVSKSVFSTGLTEADEASVFVVGTVLYRNLGSFLALQRNTTVLNSKVISVTVKPPPRSLRTPLEIEFAHMYNGTTNQTCILWDETDVPSSSAPPQLGPWSWRGCRTVPLDALRTRCLCDRL | binds | – | binds | binds |
